In this assay the target is FLAG-hPIASxα (human) (UniProt O75928). The assay is described as follows: pull-down; both purified.

Chains of the proteins cited; added tags and fusions are not shown. Lines headed by an entry give the natural chain unless they say otherwise; changes in a name come on top. A line that says so, or that is headed by a name, gives the form on record, which may keep a tag or linker.
FLAG-hPIASxα (O75928, form named): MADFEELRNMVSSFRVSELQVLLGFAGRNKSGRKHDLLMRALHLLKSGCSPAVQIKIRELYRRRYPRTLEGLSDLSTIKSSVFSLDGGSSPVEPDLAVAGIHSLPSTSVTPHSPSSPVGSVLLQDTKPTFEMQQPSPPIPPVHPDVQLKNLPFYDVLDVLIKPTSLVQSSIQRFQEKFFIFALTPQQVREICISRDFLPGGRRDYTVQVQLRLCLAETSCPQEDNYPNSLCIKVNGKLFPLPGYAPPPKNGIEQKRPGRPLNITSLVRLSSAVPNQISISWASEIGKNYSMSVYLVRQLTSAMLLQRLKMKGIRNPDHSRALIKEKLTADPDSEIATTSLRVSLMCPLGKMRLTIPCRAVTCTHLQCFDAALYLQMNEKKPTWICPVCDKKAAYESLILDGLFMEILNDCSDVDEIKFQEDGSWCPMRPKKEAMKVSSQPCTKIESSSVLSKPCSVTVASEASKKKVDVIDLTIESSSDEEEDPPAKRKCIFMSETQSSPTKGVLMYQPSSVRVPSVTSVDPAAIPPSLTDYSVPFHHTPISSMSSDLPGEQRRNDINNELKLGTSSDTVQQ
UniProt P61956: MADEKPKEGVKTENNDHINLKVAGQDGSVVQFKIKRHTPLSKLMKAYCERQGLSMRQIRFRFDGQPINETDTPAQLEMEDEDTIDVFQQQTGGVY

These are yes or no findings as the source states them, for the method shown. Binding can be weak; no strength is given.

With “Recombinant human His-SUMO2 (from UniProt P61956)”, the binding entry is recorded as “binds”.
